The campaign covered roughly 360,000 compounds. About 1,700 (0.47%) were called active. This list was built around the results that the source calls inconclusive (neither active nor inactive); the mix of calls is not that of the screen. Calls follow the shape of the dose curve; as a rule, active = well fitted inhibition curve with a large enough effect; inconclusive = small, poorly fitted or top-dose-only effect; inactive = no such curve, though single readings can be large or run the other way. Potencies of inconclusive entries are doubtful fits and often do not repeat.
target: Bifunctional 3'-5' exonuclease/ATP-dependent helicase WRN (Homo sapiens) (UniProt Q14191); assay: qHTS for Inhibitors of WRN Helicase; conditions: WRN helicase unwinding, fluorescent forked duplex, kinetic; activity change, negative = inhibition: at 114 µM (top of the series) unless noted; also: nearly all actives have a fitted effect of over 55% in size
How it was run: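 Kinetic red-fluorescence monitoring (525/598 nm) tracks WRN helicase activity after 100 nM fluorophore-quencher forked duplex and 2 mM ATP are added to 20 nM enzyme pretreated 15 min at room temperature with compound.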
% is scaled to controls: 0 for no effect and ±100 for the full control effect; potency is read from the fitted curve at half-maximal effect.

The chains behind the UniProt entries cited, without tags or fusion partners.
UniProt Q14191, whole entry, looked up: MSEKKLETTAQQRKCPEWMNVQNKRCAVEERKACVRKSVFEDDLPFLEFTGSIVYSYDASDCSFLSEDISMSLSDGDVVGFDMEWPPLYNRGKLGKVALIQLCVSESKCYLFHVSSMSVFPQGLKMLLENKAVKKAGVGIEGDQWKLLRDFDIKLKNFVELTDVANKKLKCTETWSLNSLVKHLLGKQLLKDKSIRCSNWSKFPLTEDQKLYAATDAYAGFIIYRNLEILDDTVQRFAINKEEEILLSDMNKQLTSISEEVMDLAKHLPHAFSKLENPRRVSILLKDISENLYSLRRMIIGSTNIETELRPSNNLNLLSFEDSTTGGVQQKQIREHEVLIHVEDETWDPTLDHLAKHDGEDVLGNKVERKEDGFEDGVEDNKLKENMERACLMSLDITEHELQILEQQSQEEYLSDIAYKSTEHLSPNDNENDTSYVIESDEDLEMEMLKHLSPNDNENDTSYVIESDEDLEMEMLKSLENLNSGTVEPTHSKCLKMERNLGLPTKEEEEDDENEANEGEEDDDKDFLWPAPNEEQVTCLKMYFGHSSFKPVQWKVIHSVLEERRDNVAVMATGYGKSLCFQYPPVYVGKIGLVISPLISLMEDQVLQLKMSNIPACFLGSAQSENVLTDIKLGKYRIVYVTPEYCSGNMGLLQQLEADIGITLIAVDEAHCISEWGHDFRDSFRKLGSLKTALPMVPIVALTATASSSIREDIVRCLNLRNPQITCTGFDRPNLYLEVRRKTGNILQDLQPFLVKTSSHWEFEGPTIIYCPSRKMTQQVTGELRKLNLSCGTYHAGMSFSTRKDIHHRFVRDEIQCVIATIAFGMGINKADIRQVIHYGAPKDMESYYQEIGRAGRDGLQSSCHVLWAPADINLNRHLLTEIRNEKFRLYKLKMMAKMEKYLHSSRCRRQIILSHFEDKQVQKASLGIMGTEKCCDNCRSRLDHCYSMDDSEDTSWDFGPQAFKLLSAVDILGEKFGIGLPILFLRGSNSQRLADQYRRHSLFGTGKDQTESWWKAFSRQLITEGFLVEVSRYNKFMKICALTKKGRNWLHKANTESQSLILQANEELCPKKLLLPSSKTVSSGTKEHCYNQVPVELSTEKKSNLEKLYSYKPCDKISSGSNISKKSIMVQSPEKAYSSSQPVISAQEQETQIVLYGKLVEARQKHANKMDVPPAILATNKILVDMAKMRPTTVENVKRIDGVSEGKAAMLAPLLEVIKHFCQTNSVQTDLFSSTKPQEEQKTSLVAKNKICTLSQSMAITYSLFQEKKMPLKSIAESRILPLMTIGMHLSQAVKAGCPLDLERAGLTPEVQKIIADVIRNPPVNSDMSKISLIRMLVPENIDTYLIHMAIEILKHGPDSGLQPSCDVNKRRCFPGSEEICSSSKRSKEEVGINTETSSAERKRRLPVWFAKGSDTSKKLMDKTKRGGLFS

SMILES | Potency | activity change, negative = inhibition
Cn1cc(Cl)c(C(=O)NC(=S)Nc2sc3c(c2C#N)CCCCC3)n1 | inconclusive: 28.2 µM [inhibitor, single point] | –
COc1ccc(/C=C2/SC(=O)N(CCC(=O)Nc3ccc(S(=O)(=O)Nc4nccs4)cc3)C2=O)cc1 | inconclusive: 63.1 µM [inhibitor, partial curve, poor fit] | –
Cc1ccc(NC2=C(NCCO)C(=O)c3ccccc3C2=O)cc1 | – | inactive: -13.4%
COc1ccc(NC(=O)CN(C)CC(=O)Nc2cccc(F)c2)cc1S(=O)(=O)N1CCCCC1 | active: 50.1 µM | –
O=c1cc(Br)c(O)c(Br)cc1Br | inconclusive: 56.2 µM [inhibitor, partial curve] | –
Cc1cc(NC(=O)CCC(=O)N(c2ccc(F)cc2)C(C(=O)NC2CCCC2)c2cccnc2)no1 (stereo unspecified) | inconclusive: 31.6 µM [inhibitor, single point] | –
O=C(N/N=C/c1ccc(-c2ccc(S(=O)(=O)Nc3ncccn3)cc2)o1)c1cc2ccccc2cc1O | active: 8.91 µM | –
C/C(CC(=O)Nc1cccnc1)=N\NC(=O)C(C)Oc1ccc(Cl)cc1Cl (stereo unspecified) | inconclusive: 3.98 µM [inhibitor, full curve, poor fit] | –
COc1ccc(N2C(=O)/C(=C3/C=CC=CN3C)SC2=S)cc1 | inconclusive: 25.1 µM [inhibitor, single point] | –
CCN1CCN(CCCN(Cc2ccco2)C(=S)Nc2ccc(C)c(Cl)c2)CC1 | – | inactive: 5.67%
CCOCCCNC(=O)c1ccc(Cn2c(=S)[nH]c3c([nH]c4ccc(OC)cc43)c2=O)cc1 | – | inactive: -12.8%
C=CC(C)n1c(Br)nc2c1c(=O)[nH]c(=O)n2C (stereo unspecified) | – | inactive: -0.401%
CCOc1ccc(-c2nnc(NC(=O)Cc3ccc(OC)cc3)o2)cc1 | inconclusive: 10 µM [inhibitor, partial curve] | –
CCOC(=O)C(C)N1C(=O)S/C(=C\c2ccc(-c3ccccc3C(=O)O)o2)C1=O (stereo unspecified) | active: 25.1 µM | –
O=C(Cn1c(=O)oc2ccccc21)Nc1n[nH]c(=S)s1 | – | inactive: -6.22%
C=CCn1c(SCCN2CCCC2)nc2c([nH]c3ccccc32)c1=O | inconclusive: 31.6 µM [inhibitor, single point] | –
CC(C)(C)S(=O)N1Cc2cc(CO)cc(CCO)c2[C@@H]1CCO (stereo partly specified) | – | inactive: -6.42%
CN1C(=O)C(=O)/C(=C(/O)c2ccccc2)C1c1ccc(Br)cc1 (stereo unspecified) | – | inactive: 10.2%
CC1=NN(c2ccccc2)C(=O)C1=Cc1ccccc1 | inconclusive: 56.2 µM [inhibitor, partial curve, poor fit] | –
CN1CCN(C(=S)c2ccc(Br)cc2)CC1 | inconclusive: 31.6 µM [inhibitor, full curve, poor fit] | –
Cc1cc(OCC(=O)OC(C)C(=O)Nc2ccc(N3CCOCC3)cc2)ccc1Cl (stereo unspecified) | – | inactive: 0.132%
CN(C)C(=S)c1ccccc1 | – | inactive: -19.4%
O=[N+]([O-])c1ccc(CNc2ccc(F)cc2)s1 | – | inactive: -33.2%
CC1(C)N=C(N)N=C(N)N1c1ccc(OCCCOc2ccccc2)c(Cl)c1 | – | inactive: -7.88%

SMILES | Potency | activity change, negative = inhibition
COc1ccc(C(=O)/C=C/Sc2nc3ccccc3o2)cc1 | inconclusive: 79.4 µM [inhibitor, partial curve] | –
CC1CC(C)CN(c2ccc([N+](=O)[O-])cc2-c2nn[nH]n2)C1 (stereo unspecified) | inconclusive: 10 µM [inhibitor, partial curve] | –
Cc1ccc(-n2cccc2/C=C2/C(=N)N3C(=NC2=O)SN=C3S(C)(=O)=O)cc1Cl | inconclusive: 35.5 µM [inhibitor, single point] | –
COc1ccc(/C=N/N=C2/NC(=O)C(CC(=O)O)S2)cc1OCc1ccc(Cl)cc1Cl (stereo unspecified) | inconclusive: 39.8 µM [inhibitor, single point] | –
CCN1/C(=C\c2ccc3ccccc3[n+]2CC)Sc2cc(C)ccc21 | inconclusive: 28.2 µM [inhibitor, single point] | –
C#CCOCCOCCOCCNc1nc(N2CCN(C(=O)CCCCCCCCCCNC(=O)[C@@H](CCC(=O)O)n3cc(CCCCCN)nn3)CC2)nc(N2CCN(C(=O)CCCCCCCCCCNC(=O)[C@@H](CCC(=O)O)n3cc(CCCCCN)nn3)CC2)n1 | – | inactive: 1.06%
COc1ccc(OC)c(Nc2c3ccccc3nc3ccccc23)c1 | inconclusive: 35.5 µM [inhibitor, partial curve] | –
COc1ccc(C(=O)COc2ccc3ccc(=O)oc3c2)c(OC)c1 | inconclusive: 70.8 µM [inhibitor, single point] | –
O=C(O)c1cccc(NC(=S)NC(NC(=O)c2cccc([N+](=O)[O-])c2)C(Cl)(Cl)Cl)c1 (stereo unspecified) | inconclusive: 56.2 µM [inhibitor, partial curve] | –
C=CCN1C(=O)C(=Cc2ccc3c(c2)CCC3)SC1=S | – | inactive: 0.711%
CCc1ccc(Nc2c([N+](=O)[O-])c(=O)oc3ccccc23)cc1 | inconclusive: 11.2 µM [inhibitor, full curve] | –
CCC(C(=O)NC1CCCCC1)n1c(SCc2ccccc2F)nc2ccncc21 (stereo unspecified) | – | inactive: 2.43%
COc1ccc(-c2cc(-c3ccco3)[nH]c(=O)c2C#N)cc1OC | – | inactive: -8.15%
O=C(O)/C=C/c1cn(-c2ccccc2)nc1-c1ccc(-c2ccc([N+](=O)[O-])cc2)o1 | active: 50.1 µM | –
COc1ccc(NC(=O)CN(c2ccccc2)S(=O)(=O)N(C)C)cc1OC | inconclusive: 56.2 µM [inhibitor, partial curve] | –
Cc1cc(C)c(OCCOCCN2CCN(C)CC2)c(Cl)c1 | inconclusive: 70.8 µM [inhibitor, single point] | –
Cn1c(CNC(=O)c2ccccc2)nnc1SCC(=O)Nc1nccs1 | inconclusive: 89.1 µM [inhibitor, partial curve] | –
CCOC(=O)c1c(C)oc2ccc(OCC(=O)C(C)(C)C)cc12 | – | inactive: -18.9%
COc1ccc(/C=N/Nc2ncnc3c2[nH]c2ccc(C)cc23)c(OC)c1OC | inconclusive: 31.6 µM [inhibitor, partial curve, poor fit] | –
CCC(=O)OC1(C)C(=O)C=C2C=C(c3ccsc3)OC=C2C1=O (stereo unspecified) | inconclusive: 56.2 µM [inhibitor, partial curve] | –
COc1ccc(NC(=O)CS(=O)CC(=O)Nc2ccc(NC(C)=O)cc2)cc1 (stereo unspecified) | inconclusive: 11.2 µM [inhibitor, partial curve] | –
Cc1ccc(N(C(C)C(=O)Nc2ccc3c(c2)OCO3)S(C)(=O)=O)cc1 (stereo unspecified) | inconclusive: 89.1 µM [inhibitor, single point] | –
Cc1ccc(-n2c(O)c(C=NC3CCS(=O)(=O)C3)c3ccccc3c2=O)cc1C (stereo unspecified) | – | inactive: -11.6%
O=C(Nc1ccccc1Br)c1cccc2ccccc12 | – | inactive: -20%

SMILES | Potency | activity change, negative = inhibition
COc1cc(/C=C2/SC(=S)NC2=O)ccc1OS(=O)(=O)c1ccc(C)cc1 | inconclusive: 22.4 µM [inhibitor, single point] | –
Cc1cc(C(=O)Nc2ccc(Cl)cc2)c(C)n1-c1ccccc1 | – | inactive: -21.4%
Nc1ccc2c(c1)OC1(CCCC1)O2 | inconclusive: 39.8 µM [inhibitor, single point] | –
Oc1nc(Nc2ccc(Cl)cc2Cl)sc1/C=C1\C=Nc2ccccc21 | inconclusive: 79.4 µM [inhibitor, partial curve] | –
CCCOc1ccc(N)cc1N | active: 56.2 µM | –
COCCn1c(C)cc(C(=O)COC(=O)c2ccc([N+](=O)[O-])o2)c1C | – | inactive: 0.572%
COCCOC(=O)c1[nH]c2c(c1C)C(=O)CC(c1ccco1)C2 (stereo unspecified) | inconclusive: 21.2 µM [inhibitor, partial curve] | –
O=C(CSc1nnc(-c2ccc(C(F)(F)F)cn2)o1)Nc1ccccc1Cl | inconclusive: 3.55 µM [inhibitor, full curve, poor fit] | –
N[C@@H](Cc1cc(I)c(Oc2ccc(O)c(I)c2)c(I)c1)C(=O)O | inconclusive: 50.1 µM [inhibitor, partial curve] | –
O=C(COc1ccccc1)Nc1nnc(-c2ccc(Cl)cc2)o1 | inconclusive: 39.8 µM [inhibitor, full curve, poor fit] | –
Cc1ccccc1COC(=O)c1nn(-c2ccccc2)nc1N | inconclusive: 31.6 µM [inhibitor, single point] | –
COc1cc(/C=N/NC(=O)c2cccc(C(=O)N/N=C/c3ccc(O)c(OC)c3)n2)ccc1O | inconclusive: 100 µM [inhibitor, partial curve] | –
Cc1ccc(NC(=O)C(C)N=C2NS(=O)(=O)c3ccccc32)cc1 (stereo unspecified) | – | inactive: -3.3%
Cc1ccc(S(=O)(=O)c2ccc([N+](=O)[O-])cn2)cc1 | inconclusive: 35.5 µM [inhibitor, partial curve] | –
Cc1cc(C)c2c(c1)NC(C(=O)O)C1CC=CC21 (stereo unspecified) | active: 50.1 µM | –
CC1ON=C(c2ccccn2)N(Cc2ccc3c(c2)OCO3)C1=O (stereo unspecified) | – | inactive: 9.01% [at 57.1 µM]
CC(=O)NN1C(=O)c2ccc(Oc3ccc([N+](=O)[O-])cc3)cc2C1=O | – | inactive: -17.8%
O=C(N/N=C/c1cccc(F)c1)c1cc(-c2ccco2)nc2ccccc12 | active: 56.2 µM | –
COc1cc2cc3c(N)c(C(=O)Nc4sc(C)c(C)c4C#N)sc3nc2cc1OC | inconclusive: 56.2 µM [inhibitor, partial curve] | –
COC(=O)c1[nH]c2c(c1C)C(=O)CC(c1cccs1)C2 (stereo unspecified) | – | inactive: -6.1%
O=C(O)COc1ccccc1/C=N/Nc1ccc(S(=O)(=O)Nc2ccc(Cl)cc2)cc1[N+](=O)[O-] | inconclusive: 50.1 µM [inhibitor, partial curve] | –
COc1ccccc1C(CNC(=O)c1ccc(NS(=O)(=O)c2ccc(C(C)=O)cc2)cc1)N1CCCC1 (stereo unspecified) | – | inactive: -13.3% [at 11.6 µM]
Cc1nc(C)c(C(=O)OCC(=O)NCc2ccccc2)s1 | – | inactive: 4.11%

4 compounds picked at random from those above, as already listed:
SMILES | Potency | activity change, negative = inhibition
CCC(=O)OC1(C)C(=O)C=C2C=C(c3ccsc3)OC=C2C1=O (stereo unspecified) | inconclusive: 56.2 µM [inhibitor, partial curve] | –
CC1ON=C(c2ccccn2)N(Cc2ccc3c(c2)OCO3)C1=O (stereo unspecified) | – | inactive: 9.01% [at 57.1 µM]
CN1CCN(C(=S)c2ccc(Br)cc2)CC1 | inconclusive: 31.6 µM [inhibitor, full curve, poor fit] | –
CC1=NN(c2ccccc2)C(=O)C1=Cc1ccccc1 | inconclusive: 56.2 µM [inhibitor, partial curve, poor fit] | –

From PubChem BioAssay AID651768 (National Center for Advancing Translational Sciences (NCATS), 2012)
